For at least one compound, name, drawing or mass did not settle the structure.
Experiments:
Assay type in all cases: in vivo
mice [1] = assay: Mice tail suspension test; settings: intragastric, 0.1, 0.3, 1 mg/kg, 1 h after dosing, compared with desipramine 30 mg/kg
Text: Experimental mechanism: mice tail suspension test was an acute behavioral despair model established by Steru et al (1985). […] This model was easy in operation, with good predictability, and was the most popular model for screening antidepressants. 1) Experimental device: an experimental frame with spacing boards which dividing the experimental frame into 2 experimental chambers (25×25×35 cm). A clamp is mounted on a through cross rod in the chamber. Male Kunming mice weighing 20-25 g. The mice were intragastrically administered with Compound 8, vehicle (distilled water, DW) or positive control drug (desipramine, DMI). After 1 h, wrap adhesive tape around the mouse's tail three quarters of the distance from the base of the tail and then suspend the animals by passing the suspension hook through the adhesive tape 5 cm above the table. The duration of immobility in the last 4 min of total 6 min test was recorded.

mice [2] = assay: Blocking effects of TSPO antagonist PK11195 on Compound 8 antidepressant activity in mice tail suspension test; settings: YL-IPA08 0.1 mg/kg intragastric; P<0.05
Method: The optimum dose (0.1 mg/kg) of YL-IPA08 in antidepressant effect of mice in tail suspension model was used to perform drug antagonism test, and the method was identical to that of Example 43, except that PK11195 group and PK11195+Compound 8 antagonism group with single intraperitoneal injection (ip) were added, wherein the antagonism group was administered by intraperitoneal injection with PK11195 simultaneously when Compound 8 was intragastrially administered.
Statistic method: the results were expressed in mean±SEM. The result was determined by two-way analysis of variance, and Bonferroni test was used for group comparison.

mice [3] = assay: Mice elevated plus maze test
rats = assay: Rat forced swim test; settings: p.o., 1, 3, 10 mg·kg^−1, 60 min before test, all P<0.05, equivalent to DMI 40 mg·kg^−1
[4] = system: serum pregnenolone (PREG); assay: Rat serum neurosteroid pregnenolone (PREG) content, ELISA; settings: forced swim rats, p.o. 1, 3, 10 mg/kg, 60 min; significant at 3 and 10 mg/kg
[5] = system: serum progesterone (PROG); assay: Rat serum progesterone (PROG) content, radio-immunoassay; settings: forced swim rats, p.o. 1, 3, 10 mg/kg, 60 min; significant at 3 and 10 mg/kg

Question: With `CCN(Cc1ccccn1)C(=O)Cc1c(-c2ccc(Cl)c(Cl)c2)nc2cc(C)ccn12.Cl` [Compound 8, N-ethyl-N-(2-pyridinylmethyl)-2-(3,4-dichlorophenyl)-7-methylimidazo[1,2-a]pyridine-3-acetamide.hydrochloride] as the molecule, how does the “antidepression activity (immobility time) in tail suspension test” value (mice [1]) read?
Answer: The value was “superior to the positive control desipramine”.

Question: And the “immobility time, PK11195 (3 mg/kg ip) + YL-IPA08 group versus single administration of YL-IPA08” value (mice [2])?
Answer: Its value is “increased the immobility time”.

Question: What about the “percentage of number of entering open arm and percentage of time spent in open arm versus DW group” value (mice [3]; intragastric, 0.3 mg/kg) of the same molecule?
Answer: The value was “significant difference”.

Question: What about the “total number and total time the mice entering open arm and close arm” value (mice [3]; intragastric, 0.1, 0.3, 1 mg/kg) of the same molecule?
Answer: Its value is “did not influence”.

Question: What about the “number and time the mice spent entering in open arm” value (mice [3]; intragastric, 0.1, 0.3, 1 mg/kg, 1 h after dosing) of the same molecule?
Answer: Its value is “relatively increase”.

Question: And the “swim immobility time versus blank control” value (rats)?
Answer: The value was “significantly shortened swim immobility time”.

Question: What about the “content of rat serum PREG” value [4] of the same molecule?
Answer: Its value is “increased in dose-dependent manner”.

Question: And the “content of rat serum PROG” value [5]?
Answer: The value was “increased in dose-dependent manner”.

Question: Which results are given for `CCN(Cc1ccncc1)C(=O)Cc1c(-c2ccc(Cl)c(Cl)c2)nc2cc(C)ccn12.Cl` [Compound 10, N-ethyl-N-(4-pyridinylmethyl)-2-(3,4-dichlorophenyl)-7-methylimidazo[1,2-a]pyridine-3-acetamide.hydrochloride]?
Answer: elevated plus maze indexes (open arm percentages) versus control (mice [3]; dose 3 mg/kg): significant higher than the control; elevated plus maze indexes (open arm percentages) versus control (mice [3]; dose 0.03, 0.3 mg/kg): equivalent to the control

Question: For `COCCN(Cc1ccccn1)C(=O)Cc1c(-c2ccc(Cl)c(Cl)c2)nc2cc(C)ccn12.Cl` [Compound 11, N-(2-methoxyethyl)-N-(2-pyridinylmethyl)-2-(3,4-dichlorophenyl)-7-methylimidazo[1,2-a]pyridine-3-acetamide.hydrochloride], which “percentage of number of entering open arm versus control” value (mice [3]; dose 0.03 mg/kg) is on record?
Answer: The value was “equivalent to the control”.

Question: What about the “elevated plus maze indexes versus control” value (mice [3]; indexes at other doses (than number percentage at 0.03 mg/kg)) of the same molecule?
Answer: Its value is “significantly lower”.
